# Source: PubChem BioAssay AID1259405 (NCATS, 2018)
# Test: 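Silenced genes that increase secreted GFP made by CHO cells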 (primary screen)
# Cell system: Chinese hamster CHO-K1 ovary cells with stable secreted eGFP expression
# Reagents: single siRNA against mouse genes, 0.8 pmol siRNA per well (2 µl of 400 nM stock)
# Time to read-out: 3 days
# Measurement: 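Percent of the per-plate non-targeting control median for intracellular GFP per well by laser scanning cytometry and for cell viability by ATP luminescence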
# Reading the numbers: GFP, % of control: higher = more GFP per well, higher productivity; viability (ATP), % of control: higher = more viable cells (more ATP)
# Active means: 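Called active when intracellular GFP, relative to negative control, is at or above 120%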
# This is one part, drawn at random, of about 50,000 deposited reagents. In the full data, about 4,000 (8%) are marked active. 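Mouse siRNA library applied to hamster cells; one well for each siRNA.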 The numbers tell different reagents against one gene apart.
gene symbol,reagent no.,"GFP, % of control","viability (ATP), % of control",activity call
Stard5 (GeneID 170460),1,42.5,34.2,inactive
Stard5 (GeneID 170460),2,70.7,76.1,inactive
Stard5 (GeneID 170460),3,62.6,67.7,inactive
Wnk1 (GeneID 232341),1,74.5,73,inactive
Wnk1 (GeneID 232341),2,167,82.2,active
Wnk1 (GeneID 232341),3,45.2,61.4,inactive
Wnk1 (GeneID 232341),4,91,85.6,inactive
Smc3 (GeneID 13006),1,84.8,64.1,inactive
Smc3 (GeneID 13006),2,130,85.8,active
Smc3 (GeneID 13006),3,108,111,inactive
Itlnb (GeneID 493583),1,68.8,67.8,inactive
Itlnb (GeneID 493583),2,72.7,53.2,inactive
Gucy1b1 (GeneID 54195),1,96.7,109,inactive
Gucy1b1 (GeneID 54195),2,80.7,54.7,inactive
Gucy1b1 (GeneID 54195),3,75.3,40.1,inactive
Dcstamp (GeneID 75766),1,105,79.9,inactive
Dcstamp (GeneID 75766),2,73.1,74.6,inactive
Dcstamp (GeneID 75766),3,92.5,73.5,inactive
Igf1 (GeneID 16000),1,107,62.1,inactive
Igf1 (GeneID 16000),2,104,45.9,inactive
Igf1 (GeneID 16000),3,99.6,44.1,inactive
Ccndbp1 (GeneID 17151),1,67.7,68.1,inactive
Ccndbp1 (GeneID 17151),2,113,68.9,inactive
Ccndbp1 (GeneID 17151),3,85.9,115,inactive
Epyc (GeneID 13516),1,64.2,31.5,inactive
Epyc (GeneID 13516),2,77.8,98.5,inactive
Epyc (GeneID 13516),3,89,100,inactive
Txnrd2 (GeneID 26462),1,74.8,90.3,inactive
Txnrd2 (GeneID 26462),2,61.2,83.1,inactive
Txnrd2 (GeneID 26462),3,48.9,53.5,inactive
Pigx (GeneID 72084),1,84.3,80.8,inactive
Pigx (GeneID 72084),2,60.6,79.9,inactive
Pigx (GeneID 72084),3,112,87.3,inactive
Ppp1r14d (GeneID 72112),1,90.7,90.7,inactive
Ppp1r14d (GeneID 72112),2,166,75.7,active
Ppp1r14d (GeneID 72112),3,85,88.8,inactive
Lmo1 (GeneID 109594),1,38.9,44.7,inactive
Lmo1 (GeneID 109594),2,46.6,65.6,inactive
Lmo1 (GeneID 109594),3,90.9,67.7,inactive

Reformatted: entries from further up.
gene symbol	reagent no.	GFP, % of control	viability (ATP), % of control	activity call
Dcstamp (GeneID 75766)	2	73.1	74.6	inactive
Dcstamp (GeneID 75766)	3	92.5	73.5	inactive
Igf1 (GeneID 16000)	1	107	62.1	inactive
Igf1 (GeneID 16000)	2	104	45.9	inactive
Igf1 (GeneID 16000)	3	99.6	44.1	inactive
Ccndbp1 (GeneID 17151)	1	67.7	68.1	inactive
Ccndbp1 (GeneID 17151)	2	113	68.9	inactive
Ccndbp1 (GeneID 17151)	3	85.9	115	inactive
Epyc (GeneID 13516)	1	64.2	31.5	inactive

The results go on.
gene symbol,reagent no.,"GFP, % of control","viability (ATP), % of control",activity call
Mrm1 (GeneID 217038),1,47,41,inactive
Mrm1 (GeneID 217038),2,57.8,68.9,inactive
Mrm1 (GeneID 217038),3,57.9,63.3,inactive
Bsx (GeneID 244813),1,67.5,74.8,inactive
Bsx (GeneID 244813),2,61.6,65.5,inactive
Bsx (GeneID 244813),3,65.3,63.4,inactive
Marveld3 (GeneID 73608),1,74.6,89.6,inactive
Marveld3 (GeneID 73608),2,78.3,89.8,inactive
Marveld3 (GeneID 73608),3,66.7,36.1,inactive
Spata16 (GeneID 70862),1,65.6,70.5,inactive
Spata16 (GeneID 70862),2,78.4,49.6,inactive
Spata16 (GeneID 70862),3,77.4,75.9,inactive
Zfpm1 (GeneID 22761),1,25,23.6,inactive
Zfpm1 (GeneID 22761),2,70.9,85.1,inactive
Zfpm1 (GeneID 22761),3,78.7,90.5,inactive
Manba (GeneID 110173),1,64.4,99.3,inactive
Manba (GeneID 110173),2,70.4,96.2,inactive
Manba (GeneID 110173),3,58.5,98.5,inactive
Tigar (GeneID 319801),1,26.9,22.8,inactive
Tigar (GeneID 319801),2,32.8,69.3,inactive
Tigar (GeneID 319801),3,70.3,98.9,inactive
Arhgap4 (GeneID 171207),1,142,81.8,active
Arhgap4 (GeneID 171207),2,78.3,75.2,inactive
Arhgap4 (GeneID 171207),3,98.3,113,inactive
Mapre3 (GeneID 100732),1,95.2,99.5,inactive
Mapre3 (GeneID 100732),2,83.9,70.6,inactive
Mapre3 (GeneID 100732),3,68.5,72.6,inactive
Neurod6 (GeneID 11922),1,111,111,inactive
Neurod6 (GeneID 11922),2,106,77.8,inactive
Neurod6 (GeneID 11922),3,73.1,90.4,inactive
Timm50 (GeneID 66525),1,63.9,69.6,inactive
Timm50 (GeneID 66525),2,71.2,81.5,inactive
Timm50 (GeneID 66525),3,61.8,54.3,inactive
Gpr151 (GeneID 240239),1,86.5,37.3,inactive
Gpr151 (GeneID 240239),2,93,59.8,inactive
Gpr151 (GeneID 240239),3,81.9,85.4,inactive
Cdhr4 (GeneID 69398),1,77.8,104,inactive
Cdhr4 (GeneID 69398),2,39.3,49.6,inactive
Cdhr4 (GeneID 69398),3,51,56,inactive
Tmt1a (GeneID 70152),1,93.1,65,inactive
Tmt1a (GeneID 70152),2,37.8,38.5,inactive
Tmt1a (GeneID 70152),3,91.2,79.8,inactive
Cd300lg (GeneID 52685),1,42.4,33.5,inactive
Cd300lg (GeneID 52685),2,79.9,90.8,inactive
Cd300lg (GeneID 52685),3,77.1,84.3,inactive
Lim2 (GeneID 233187),1,102,57.2,inactive
Lim2 (GeneID 233187),2,63.2,68.1,inactive
Lim2 (GeneID 233187),3,78.2,110,inactive
Myadm (GeneID 50918),1,58.2,67.4,inactive
Myadm (GeneID 50918),2,74.3,84.1,inactive
Myadm (GeneID 50918),3,64.8,62.8,inactive
Nup54 (GeneID 269113),1,66,65.1,inactive
Nup54 (GeneID 269113),2,104,62.8,inactive
Nup54 (GeneID 269113),3,79.4,97.5,inactive
Ccn4 (GeneID 22402),1,58.2,85.8,inactive
Ccn4 (GeneID 22402),2,115,55.3,inactive
Ccn4 (GeneID 22402),3,97.6,126,inactive
H2ac4 (GeneID 319172),1,61,67.6,inactive
H2ac4 (GeneID 319172),2,59.9,99.1,inactive
H2ac4 (GeneID 319172),3,67.6,52.4,inactive
Med27 (GeneID 68975),1,92.7,84.9,inactive
Med27 (GeneID 68975),2,103,67.6,inactive
Med27 (GeneID 68975),3,104,110,inactive
Med6 (GeneID 69792),1,96.9,90.2,inactive
Med6 (GeneID 69792),2,90.2,67.2,inactive
Haus8 (GeneID 76478),1,93.2,37,inactive
Haus8 (GeneID 76478),2,55.5,72.4,inactive
Haus8 (GeneID 76478),3,114,87.8,inactive
